Experimental data reported in the supplement of paper PMC10849652.
The other results are listed elsewhere or left out.

Protein sequences, listed by entry. Tags and fused reporters are not part of them. Lines headed by an entry give the natural chain unless they say otherwise; changes in a name come on top.
UniProt P40425: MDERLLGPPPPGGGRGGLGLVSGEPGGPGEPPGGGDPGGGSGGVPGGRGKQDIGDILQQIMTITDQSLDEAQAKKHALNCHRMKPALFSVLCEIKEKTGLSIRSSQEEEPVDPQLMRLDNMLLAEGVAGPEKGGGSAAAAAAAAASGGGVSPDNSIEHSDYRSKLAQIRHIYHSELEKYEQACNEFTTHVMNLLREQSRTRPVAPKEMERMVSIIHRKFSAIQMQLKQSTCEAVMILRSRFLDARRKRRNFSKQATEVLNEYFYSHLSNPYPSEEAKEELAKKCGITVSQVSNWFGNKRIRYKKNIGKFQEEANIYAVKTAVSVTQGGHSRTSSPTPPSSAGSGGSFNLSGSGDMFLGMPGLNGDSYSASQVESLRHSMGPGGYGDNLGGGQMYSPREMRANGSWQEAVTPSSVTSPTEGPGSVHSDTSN
UniProt O60829: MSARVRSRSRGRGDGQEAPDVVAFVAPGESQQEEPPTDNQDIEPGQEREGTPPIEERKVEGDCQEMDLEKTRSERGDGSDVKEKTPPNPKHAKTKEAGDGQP
UniProt P29122: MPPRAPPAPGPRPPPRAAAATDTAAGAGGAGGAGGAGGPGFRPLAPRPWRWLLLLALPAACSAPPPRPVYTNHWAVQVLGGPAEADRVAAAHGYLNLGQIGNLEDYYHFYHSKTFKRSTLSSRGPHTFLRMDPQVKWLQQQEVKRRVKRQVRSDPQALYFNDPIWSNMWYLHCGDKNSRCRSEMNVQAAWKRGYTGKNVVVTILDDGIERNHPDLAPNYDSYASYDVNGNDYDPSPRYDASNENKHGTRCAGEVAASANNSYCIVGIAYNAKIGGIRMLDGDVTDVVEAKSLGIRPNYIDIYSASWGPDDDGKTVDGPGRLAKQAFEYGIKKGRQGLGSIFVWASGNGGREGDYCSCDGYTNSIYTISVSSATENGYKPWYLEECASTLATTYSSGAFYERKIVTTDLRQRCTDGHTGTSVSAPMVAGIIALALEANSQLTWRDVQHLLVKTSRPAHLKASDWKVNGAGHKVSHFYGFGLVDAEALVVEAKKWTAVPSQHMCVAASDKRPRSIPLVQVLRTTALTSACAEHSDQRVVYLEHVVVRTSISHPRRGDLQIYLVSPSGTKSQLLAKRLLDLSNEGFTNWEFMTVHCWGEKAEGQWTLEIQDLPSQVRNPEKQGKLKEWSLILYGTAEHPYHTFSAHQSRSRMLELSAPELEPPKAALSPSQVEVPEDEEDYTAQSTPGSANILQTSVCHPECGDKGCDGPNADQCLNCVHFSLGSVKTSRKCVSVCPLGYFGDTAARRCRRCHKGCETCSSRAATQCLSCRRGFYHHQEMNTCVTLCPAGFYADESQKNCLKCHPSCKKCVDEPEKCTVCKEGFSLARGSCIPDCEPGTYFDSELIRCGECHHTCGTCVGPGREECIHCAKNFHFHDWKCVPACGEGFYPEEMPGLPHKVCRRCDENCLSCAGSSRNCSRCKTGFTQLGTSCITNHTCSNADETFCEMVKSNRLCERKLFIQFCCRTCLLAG
UniProt Q15118, whole entry, looked up: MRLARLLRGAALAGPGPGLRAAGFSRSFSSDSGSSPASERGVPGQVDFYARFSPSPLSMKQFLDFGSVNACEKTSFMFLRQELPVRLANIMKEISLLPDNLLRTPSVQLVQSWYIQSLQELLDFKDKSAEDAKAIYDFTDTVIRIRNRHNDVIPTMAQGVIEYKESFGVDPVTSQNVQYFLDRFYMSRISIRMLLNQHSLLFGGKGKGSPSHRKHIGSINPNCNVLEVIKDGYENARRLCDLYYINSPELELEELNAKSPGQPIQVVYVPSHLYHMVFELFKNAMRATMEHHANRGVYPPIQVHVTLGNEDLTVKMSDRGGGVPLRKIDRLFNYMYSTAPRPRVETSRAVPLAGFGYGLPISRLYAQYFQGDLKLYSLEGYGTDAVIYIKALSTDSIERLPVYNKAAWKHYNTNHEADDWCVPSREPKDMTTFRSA
UniProt Q8WW12: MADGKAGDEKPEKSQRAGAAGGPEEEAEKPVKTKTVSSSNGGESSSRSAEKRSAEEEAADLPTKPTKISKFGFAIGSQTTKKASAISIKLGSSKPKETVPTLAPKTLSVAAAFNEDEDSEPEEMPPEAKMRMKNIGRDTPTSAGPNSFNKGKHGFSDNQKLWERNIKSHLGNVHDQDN
UniProt Q96GD0: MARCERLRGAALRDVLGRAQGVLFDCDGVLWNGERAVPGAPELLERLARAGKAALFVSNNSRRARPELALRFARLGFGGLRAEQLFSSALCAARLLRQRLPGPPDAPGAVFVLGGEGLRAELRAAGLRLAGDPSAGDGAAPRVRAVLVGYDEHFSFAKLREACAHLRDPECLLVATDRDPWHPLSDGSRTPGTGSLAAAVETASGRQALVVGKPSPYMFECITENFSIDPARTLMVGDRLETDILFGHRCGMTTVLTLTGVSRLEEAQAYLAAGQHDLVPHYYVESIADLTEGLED
UniProt Q96RG2: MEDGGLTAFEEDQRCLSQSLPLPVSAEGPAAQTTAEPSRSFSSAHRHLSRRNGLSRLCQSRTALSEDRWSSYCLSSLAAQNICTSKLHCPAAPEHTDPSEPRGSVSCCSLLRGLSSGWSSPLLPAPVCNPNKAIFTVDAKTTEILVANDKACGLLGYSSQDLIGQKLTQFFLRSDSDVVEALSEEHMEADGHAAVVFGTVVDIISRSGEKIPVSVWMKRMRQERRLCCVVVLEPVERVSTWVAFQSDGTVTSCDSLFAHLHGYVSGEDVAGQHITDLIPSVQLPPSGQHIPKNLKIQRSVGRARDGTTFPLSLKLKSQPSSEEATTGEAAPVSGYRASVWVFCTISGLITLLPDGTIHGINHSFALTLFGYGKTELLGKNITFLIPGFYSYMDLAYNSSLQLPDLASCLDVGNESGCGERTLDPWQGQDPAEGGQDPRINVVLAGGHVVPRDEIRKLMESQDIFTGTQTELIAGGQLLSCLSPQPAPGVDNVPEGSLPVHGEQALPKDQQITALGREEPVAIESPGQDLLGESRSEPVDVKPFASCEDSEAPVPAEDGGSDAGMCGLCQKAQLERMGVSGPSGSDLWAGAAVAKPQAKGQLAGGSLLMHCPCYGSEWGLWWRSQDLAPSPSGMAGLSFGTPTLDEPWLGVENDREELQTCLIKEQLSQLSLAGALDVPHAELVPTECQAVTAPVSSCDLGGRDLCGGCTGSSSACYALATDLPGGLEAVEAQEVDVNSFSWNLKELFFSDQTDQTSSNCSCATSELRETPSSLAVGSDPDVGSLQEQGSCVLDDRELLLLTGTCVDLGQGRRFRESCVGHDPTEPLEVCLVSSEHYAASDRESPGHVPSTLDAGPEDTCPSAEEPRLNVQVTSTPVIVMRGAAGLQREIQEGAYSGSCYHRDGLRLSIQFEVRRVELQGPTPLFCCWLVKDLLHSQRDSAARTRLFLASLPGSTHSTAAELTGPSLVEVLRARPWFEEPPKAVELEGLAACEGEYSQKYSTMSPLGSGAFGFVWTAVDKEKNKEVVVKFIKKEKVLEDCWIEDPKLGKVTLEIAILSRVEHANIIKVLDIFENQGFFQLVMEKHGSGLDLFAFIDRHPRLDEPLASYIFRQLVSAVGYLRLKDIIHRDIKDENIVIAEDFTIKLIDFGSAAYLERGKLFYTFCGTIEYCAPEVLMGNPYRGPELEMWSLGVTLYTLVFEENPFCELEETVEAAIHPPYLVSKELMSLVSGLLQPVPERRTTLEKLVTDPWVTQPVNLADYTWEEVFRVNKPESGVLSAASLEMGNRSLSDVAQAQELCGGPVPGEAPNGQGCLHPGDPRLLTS
UniProt Q5T2R2: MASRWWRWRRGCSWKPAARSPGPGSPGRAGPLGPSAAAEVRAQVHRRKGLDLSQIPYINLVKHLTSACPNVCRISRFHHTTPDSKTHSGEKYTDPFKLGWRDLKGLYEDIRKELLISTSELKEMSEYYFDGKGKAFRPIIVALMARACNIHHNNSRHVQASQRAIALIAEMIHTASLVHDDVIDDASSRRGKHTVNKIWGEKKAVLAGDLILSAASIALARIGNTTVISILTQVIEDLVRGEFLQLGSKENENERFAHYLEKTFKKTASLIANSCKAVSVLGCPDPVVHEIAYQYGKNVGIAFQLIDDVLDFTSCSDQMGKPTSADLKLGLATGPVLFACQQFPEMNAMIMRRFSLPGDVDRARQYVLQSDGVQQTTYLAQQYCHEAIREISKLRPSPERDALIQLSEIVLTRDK
UniProt O14737: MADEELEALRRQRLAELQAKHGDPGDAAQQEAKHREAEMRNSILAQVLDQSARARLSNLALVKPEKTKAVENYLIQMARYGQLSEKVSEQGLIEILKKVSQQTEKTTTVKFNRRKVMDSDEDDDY
UniProt P05166: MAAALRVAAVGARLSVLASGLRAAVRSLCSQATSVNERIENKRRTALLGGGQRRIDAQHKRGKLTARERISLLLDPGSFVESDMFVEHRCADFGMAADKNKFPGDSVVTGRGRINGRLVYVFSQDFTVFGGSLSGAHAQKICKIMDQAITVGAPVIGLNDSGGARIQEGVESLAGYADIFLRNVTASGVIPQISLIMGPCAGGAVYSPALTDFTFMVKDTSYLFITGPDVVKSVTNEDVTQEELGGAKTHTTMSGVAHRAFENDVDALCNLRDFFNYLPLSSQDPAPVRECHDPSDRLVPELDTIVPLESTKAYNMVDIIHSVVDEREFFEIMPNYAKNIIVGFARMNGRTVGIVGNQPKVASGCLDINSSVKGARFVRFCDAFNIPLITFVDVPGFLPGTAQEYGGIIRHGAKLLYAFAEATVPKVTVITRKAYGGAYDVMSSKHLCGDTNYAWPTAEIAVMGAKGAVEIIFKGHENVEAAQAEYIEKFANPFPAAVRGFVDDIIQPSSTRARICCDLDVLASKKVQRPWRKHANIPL
UniProt O00151: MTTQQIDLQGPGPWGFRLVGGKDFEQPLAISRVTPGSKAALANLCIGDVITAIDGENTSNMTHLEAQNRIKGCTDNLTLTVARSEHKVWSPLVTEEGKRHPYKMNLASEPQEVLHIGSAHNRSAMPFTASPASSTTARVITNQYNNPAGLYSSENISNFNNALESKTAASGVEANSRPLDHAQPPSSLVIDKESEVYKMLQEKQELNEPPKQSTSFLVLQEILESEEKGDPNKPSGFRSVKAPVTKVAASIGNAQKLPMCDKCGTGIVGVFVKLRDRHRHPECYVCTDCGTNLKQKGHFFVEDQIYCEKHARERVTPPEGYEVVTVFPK
UniProt Q8NCN5: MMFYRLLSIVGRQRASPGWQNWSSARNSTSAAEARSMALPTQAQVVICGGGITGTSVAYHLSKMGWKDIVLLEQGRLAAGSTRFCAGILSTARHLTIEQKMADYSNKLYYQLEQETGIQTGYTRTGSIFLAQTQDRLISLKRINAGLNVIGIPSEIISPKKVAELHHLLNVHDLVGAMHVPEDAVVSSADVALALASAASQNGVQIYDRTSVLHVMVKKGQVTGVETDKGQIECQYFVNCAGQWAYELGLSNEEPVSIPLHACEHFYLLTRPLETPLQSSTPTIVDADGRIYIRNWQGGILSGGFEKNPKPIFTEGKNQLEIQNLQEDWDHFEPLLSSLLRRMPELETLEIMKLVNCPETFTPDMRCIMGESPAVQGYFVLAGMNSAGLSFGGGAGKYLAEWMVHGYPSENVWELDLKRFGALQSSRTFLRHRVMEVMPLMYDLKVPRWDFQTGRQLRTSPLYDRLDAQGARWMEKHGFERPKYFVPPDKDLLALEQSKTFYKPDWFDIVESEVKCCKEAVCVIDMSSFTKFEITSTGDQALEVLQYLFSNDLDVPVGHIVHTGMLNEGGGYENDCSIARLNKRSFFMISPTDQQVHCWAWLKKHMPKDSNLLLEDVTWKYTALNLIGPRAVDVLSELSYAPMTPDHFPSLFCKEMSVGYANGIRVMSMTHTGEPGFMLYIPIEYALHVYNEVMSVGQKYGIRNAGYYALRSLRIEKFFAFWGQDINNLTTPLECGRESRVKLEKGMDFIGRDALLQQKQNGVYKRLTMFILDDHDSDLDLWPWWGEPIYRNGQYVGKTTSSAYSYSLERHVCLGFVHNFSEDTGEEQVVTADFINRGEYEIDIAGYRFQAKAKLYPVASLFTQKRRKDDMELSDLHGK
UniProt O75914, whole entry, looked up: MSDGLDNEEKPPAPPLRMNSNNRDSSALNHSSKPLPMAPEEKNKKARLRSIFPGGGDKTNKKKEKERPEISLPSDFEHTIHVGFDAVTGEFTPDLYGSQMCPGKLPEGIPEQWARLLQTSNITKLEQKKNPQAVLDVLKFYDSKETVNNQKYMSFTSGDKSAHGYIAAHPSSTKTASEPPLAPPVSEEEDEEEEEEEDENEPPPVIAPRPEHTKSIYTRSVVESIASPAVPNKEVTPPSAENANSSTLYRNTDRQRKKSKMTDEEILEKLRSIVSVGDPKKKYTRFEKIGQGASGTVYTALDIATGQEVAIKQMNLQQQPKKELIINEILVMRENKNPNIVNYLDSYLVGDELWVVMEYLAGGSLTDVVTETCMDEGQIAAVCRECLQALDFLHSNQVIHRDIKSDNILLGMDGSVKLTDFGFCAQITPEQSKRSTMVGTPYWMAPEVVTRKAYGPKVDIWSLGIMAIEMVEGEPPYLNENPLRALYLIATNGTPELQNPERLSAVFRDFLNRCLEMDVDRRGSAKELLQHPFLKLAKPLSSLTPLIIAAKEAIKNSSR

Key:
Experiment in all cases: log2 fold change, soluble protein after heating vs DMSO (PISA); higher = thermal stabilisation; K562 cells, 10 uM, 30 min; active = over 0.2 and 3.5 SD of the protein, either way, in both replicates (recomputed)
[1] = compound: NC(=O)Nc1cc(-c2cccc(F)c2)sc1C(=O)N[C@H]1CCCNC1
Procedure, shortened: (§1)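 Soluble protein was defined as the supernatant after 21,000xg for 90 min. It came from K562 cells at 2×10^6 cells/mL given 10 μM compound for 30 min, heated in aliquots for 3 min across 48°C-58°C, pooled, and extracted in PBS with 0.5% NP-40 at 4°C, and was quantified by TMTpro 16plex LC-MS/MS with equalised channel sums. Thermal stability against control samples, from duplicates, is reported as log2 fold change.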

[2] = compound: NC(=O)c1cnc(N[C@@H]2CCCC[C@@H]2N)nc1Nc1cccc(-n2nccn2)c1
Procedure, shortened: as §1

[3] = compound: NC1(c2ccc(-c3nc4ccn5c(=O)[nH]nc5c4cc3-c3ccccc3)cc2)CCC1
Procedure, shortened: as §1

[4] = compound: NCC(=O)Nc1ccc(-n2nc(C(F)(F)F)cc2-c2ccc3c(ccc4ccccc43)c2)cc1
Procedure, shortened: as §1

[5] = compound: Nc1ccccc1NC(=O)c1ccc(CNC(=O)OCc2cccnc2)cc1 [entinostat]
Procedure, shortened: as §1

[6] = compound: O=C(CCCCCCC(=O)Nc1ccccc1)NO [vorinostat]
Procedure, shortened: as §1

[7] = compound: O=C(CCCCCCNC(=O)c1cnc(N(c2ccccc2)c2ccccc2Cl)nc1)NO [citarinostat]
Procedure, shortened: as §1

[8] = compound: O=C(O)c1ccc2c(c1)nc(Nc1cccc(Cl)c1)c1ccncc12 [silmitasertib]
Procedure, shortened: as §1

[9] = compound: O=C1NC(=O)C(c2cnc3ccccn23)=C1c1cn2c3c(cc(F)cc13)CN(C(=O)N1CCCCC1)CC2
Procedure, shortened: as §1

[10] = compound: c1cc(OCCN2CCCCC2)cc(-c2n[nH]c3ccc(-c4nnc[nH]4)cc23)c1
Procedure, shortened: as §1

[11] = compound: c1cn2cc(-c3ccc4cn[nH]c4c3)nc(Nc3ccc(N4CCOCC4)cc3)c2n1 [entospletinib]
Procedure, shortened: as §1

Measured: log2 fold change

PDIA3 (UniProt P30101)
inactive: [1] 0.011 | [2] 0.004 | [3] -0.011 | [4] 0.059 | [5] 0.026 | [6] -0.04 | [7] -0.012 | [8] -0.006 | [9] 0.03 | [10] -0.068 | [11] 0.015

PEX14 (UniProt O75381)
inactive: [1] 0.048 | [2] -0.046 | [3] -0.008 | [4] 0.037 | [5] 0.106 | [6] 0.013 | [7] 0.057 | [8] -0.017 | [9] 0.123 | [10] 0.02 | [11] -0.064

PBX2 (UniProt P40425)
inactive: [1] 0.089 | [2] -0.016 | [3] -0.203 | [4] -0.065 | [5] 0.058 | [6] 0.196 | [8] 0.003 | [9] -0.168

PAGE4 (UniProt O60829)
inactive: [1] 0.128 | [2] 0.13 | [3] 0.103 | [4] 0.003 | [5] 0.139 | [6] -0.178 | [7] 0.03 | [8] 0.069 | [9] 0.143 | [10] -0.042 | [11] -0.009

PCSK6 isoform 7 (UniProt P29122)
inactive: [1] -0.248 | [2] -0.249 | [3] -0.134 | [4] -0.149 | [5] -0.073 | [6] -0.125 | [7] 0.258 | [8] 0.056 | [10] -0.174 | [11] -0.092

PDK1 (UniProt Q15118)
inactive: [1] 0.051 | [2] -0.04 | [3] 0.12 | [4] -0.016 | [5] -0.04 | [6] -0.072 | [7] -0.062 | [8] 0.031 | [9] -0.11 | [10] 0.025 | [11] 0.015

PDXK (UniProt O00764)
inactive: [1] 0.027 | [2] 0.01 | [3] 0.026 | [4] 0.091 | [5] -0.038 | [6] 0.02 | [7] 0.042 | [8] -0.007 | [9] 0.05 | [10] -0.054 | [11] 0.027

PDCD11 (UniProt Q14690)
inactive: [1] -0.024 | [2] -0.153 | [3] -0.272 | [4] -0.237 | [5] 0.015 | [6] 0.049 | [7] 0 | [8] 0.058 | [9] 0.05 | [10] -0.135 | [11] -0.06

PDAP1 (UniProt Q13442)
inactive: [1] 0.125 | [2] -0.03 | [3] 0.035 | [4] -0.01 | [5] -0.013 | [6] -0.012 | [7] -0.029 | [8] -0.045 | [9] 0.008 | [10] 0.039 | [11] 0.006

PCNP (UniProt Q8WW12)
inactive: [1] 0.022 | [2] 0 | [3] 0.048 | [4] 0.035 | [5] -0.044 | [6] -0.05 | [7] -0.002 | [8] 0.012 | [9] 0.003 | [10] -0.007 | [11] -0.01

PALMD (UniProt Q9NP74)
inactive: [1] -0.169 | [2] 0.015 | [3] 0.068 | [4] 0.06 | [5] -0.135 | [6] -0.021 | [7] 0.157 | [8] 0.029 | [9] 0.019 | [10] 0.024 | [11] -0.019

PDXP (UniProt Q96GD0)
inactive: [1] 0.018 | [2] 0.027 | [3] -0.02 | [4] 0.05 | [5] -0.039 | [6] -0.001 | [7] 0.005 | [8] -0.012 | [9] -0.016 | [10] 0.012 | [11] -0.02

PASK (UniProt Q96RG2)
inactive: [1] -0.005 | [2] 0.006 | [3] -0.023 | [4] -0.112 | [5] 0.002 | [6] 0.071 | [7] -0.029 | [8] 0.053 | [9] 0.02 | [10] 0.021 | [11] -0.026

PDSS1 (UniProt Q5T2R2)
inactive: [1] -0.009 | [2] -0.051 | [3] -0.127 | [4] -0.055 | [5] -0.053 | [6] -0.09 | [7] 0.02 | [8] -0.088 | [9] -0.181 | [10] -0.053 | [11] -0.079

2 neighbouring entries from above, quoted:
PALMD (UniProt Q9NP74)
inactive: [1] -0.169 | [2] 0.015 | [3] 0.068 | [4] 0.06 | [5] -0.135 | [6] -0.021 | [7] 0.157 | [8] 0.029 | [9] 0.019 | [10] 0.024 | [11] -0.019

PDXP (UniProt Q96GD0)
inactive: [1] 0.018 | [2] 0.027 | [3] -0.02 | [4] 0.05 | [5] -0.039 | [6] -0.001 | [7] 0.005 | [8] -0.012 | [9] -0.016 | [10] 0.012 | [11] -0.02

Additional records.

PES1 (UniProt O00541)
inactive: [1] 0.024 | [2] -0.023 | [3] 0.072 | [4] -0.021 | [5] 0.003 | [6] 0.109 | [7] -0.031 | [8] 0.122 | [9] 0.08 | [10] -0.087 | [11] -0.112

PAIP1 (UniProt Q9H074)
inactive: [1] 0.008 | [2] -0.059 | [3] -0.062 | [4] -0.039 | [5] -0.016 | [6] 0.054 | [7] 0.023 | [8] 0.008 | [9] -0.012 | [10] -0.047 | [11] 0.028

PAFAH1B1 (UniProt P43034)
inactive: [1] -0.01 | [2] -0.02 | [3] -0.004 | [4] -0.01 | [5] -0.006 | [6] -0.005 | [7] 0.027 | [8] -0.021 | [9] -0.03 | [10] -0.023 | [11] -0.016

PDCD5 (UniProt O14737)
inactive: [1] 0.198 | [2] -0.017 | [3] 0.055 | [4] -0.036 | [5] 0.09 | [6] -0.013 | [7] 0.024 | [8] -0.012 | [9] 0.163 | [10] -0.052 | [11] -0.016

PANK4 (UniProt Q9NVE7)
inactive: [1] -0.015 | [2] -0.03 | [3] -0.032 | [4] -0.033 | [5] -0.004 | [6] 0.002 | [7] 0.058 | [8] 0 | [9] -0.034 | [10] -0.038 | [11] -0.11

PDZD8 (UniProt Q8NEN9)
inactive: [1] 0.025 | [2] -0.072 | [3] -0.09 | [4] -0.047 | [5] -0.003 | [6] 0.023 | [7] 0.029 | [8] 0.099 | [9] -0.045 | [10] -0.056 | [11] -0.014

PCCB isoform 2 (UniProt P05166)
inactive: [1] -0.003 | [2] -0.009 | [3] -0.052 | [4] 0.044 | [5] -0.005 | [6] -0.007 | [7] -0.007 | [8] -0.021 | [9] -0.019 | [10] -0.019 | [11] 0.023

PDLIM1 (UniProt O00151)
inactive: [1] 0.032 | [2] -0.046 | [3] 0.028 | [4] 0.023 | [5] -0.001 | [6] -0.008 | [7] -0.017 | [8] -0.035 | [9] 0.004 | [10] 0.056 | [11] 0.022

PDXDC1 (UniProt Q6P996)
inactive: [1] 0.003 | [2] 0.206 | [3] 0.125 | [4] 0.16 | [5] 0.035 | [6] -0.163 | [7] -0.033 | [8] 0.19 | [9] 0.027 | [10] -0.157 | [11] 0.207

PCIF1 (UniProt Q9H4Z3)
inactive: [1] 0.119 | [2] 0.084 | [3] -0.021 | [4] -0.246 | [5] 0.003 | [6] 0.098 | [8] -0.085 | [9] -0.273

PAGR1 (UniProt Q9BTK6)
inactive: [1] 0.114 | [2] 0.044 | [3] 0.036 | [4] 0.103 | [5] 0.069 | [6] 0.022 | [7] 0.011 | [8] 0.045 | [9] 0.022 | [10] -0.006 | [11] -0.071

PDPR (UniProt Q8NCN5)
inactive: [1] -0.018 | [2] -0.094 | [3] -0.182 | [4] -0.014 | [5] 0 | [6] -0.031 | [7] 0.006 | [8] -0.01 | [9] -0.039 | [10] 0.047 | [11] 0.035

PEPD (UniProt P12955)
inactive: [1] 0.023 | [2] -0.037 | [3] 0.003 | [4] -0.03 | [5] -0.034 | [6] -0.019 | [7] 0.026 | [8] -0.007 | [9] -0.021 | [10] 0.102 | [11] -0.029

PAK3 isoform 3 (UniProt O75914)
inactive: [1] 0.062 | [2] -0.014 | [3] 0.03 | [4] 0.058 | [5] 0.034 | [6] 0.014 | [7] 0.092 | [8] -0.009 | [9] -0.044 | [10] 0.026 | [11] -0.023
